# Data from the supplement of paper PMC10849652.
# Amino acid sequences for entries named in this document (tags omitted). A change or cut given only in a name is not applied to a line headed by its entry.
# UniProt Q8NBQ5: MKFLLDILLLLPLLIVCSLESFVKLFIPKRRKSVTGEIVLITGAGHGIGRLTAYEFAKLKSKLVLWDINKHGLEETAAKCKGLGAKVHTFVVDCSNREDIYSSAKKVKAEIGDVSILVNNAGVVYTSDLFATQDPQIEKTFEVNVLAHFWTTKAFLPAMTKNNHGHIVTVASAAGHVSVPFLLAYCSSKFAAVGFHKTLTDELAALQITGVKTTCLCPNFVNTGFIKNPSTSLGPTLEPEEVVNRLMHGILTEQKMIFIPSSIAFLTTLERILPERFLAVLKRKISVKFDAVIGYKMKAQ
# UniProt P0DMV8, whole entry, looked up: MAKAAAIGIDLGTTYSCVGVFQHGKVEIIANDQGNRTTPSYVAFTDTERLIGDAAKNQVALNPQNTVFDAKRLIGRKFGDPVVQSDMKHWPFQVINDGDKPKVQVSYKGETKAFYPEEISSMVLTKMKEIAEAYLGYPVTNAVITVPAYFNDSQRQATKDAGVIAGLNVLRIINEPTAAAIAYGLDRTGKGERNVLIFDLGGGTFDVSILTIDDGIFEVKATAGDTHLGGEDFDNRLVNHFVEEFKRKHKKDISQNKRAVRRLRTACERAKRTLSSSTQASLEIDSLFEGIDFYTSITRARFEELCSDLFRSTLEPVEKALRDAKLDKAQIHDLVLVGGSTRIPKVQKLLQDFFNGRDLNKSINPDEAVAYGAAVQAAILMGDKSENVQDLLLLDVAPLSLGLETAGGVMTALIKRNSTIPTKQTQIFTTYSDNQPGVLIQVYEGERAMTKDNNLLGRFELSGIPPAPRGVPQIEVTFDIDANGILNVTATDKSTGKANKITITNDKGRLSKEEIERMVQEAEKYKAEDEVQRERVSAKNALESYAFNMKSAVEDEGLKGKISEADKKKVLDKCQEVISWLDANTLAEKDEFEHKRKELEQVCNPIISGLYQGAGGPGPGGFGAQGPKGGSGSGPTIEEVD
# UniProt Q6AI08: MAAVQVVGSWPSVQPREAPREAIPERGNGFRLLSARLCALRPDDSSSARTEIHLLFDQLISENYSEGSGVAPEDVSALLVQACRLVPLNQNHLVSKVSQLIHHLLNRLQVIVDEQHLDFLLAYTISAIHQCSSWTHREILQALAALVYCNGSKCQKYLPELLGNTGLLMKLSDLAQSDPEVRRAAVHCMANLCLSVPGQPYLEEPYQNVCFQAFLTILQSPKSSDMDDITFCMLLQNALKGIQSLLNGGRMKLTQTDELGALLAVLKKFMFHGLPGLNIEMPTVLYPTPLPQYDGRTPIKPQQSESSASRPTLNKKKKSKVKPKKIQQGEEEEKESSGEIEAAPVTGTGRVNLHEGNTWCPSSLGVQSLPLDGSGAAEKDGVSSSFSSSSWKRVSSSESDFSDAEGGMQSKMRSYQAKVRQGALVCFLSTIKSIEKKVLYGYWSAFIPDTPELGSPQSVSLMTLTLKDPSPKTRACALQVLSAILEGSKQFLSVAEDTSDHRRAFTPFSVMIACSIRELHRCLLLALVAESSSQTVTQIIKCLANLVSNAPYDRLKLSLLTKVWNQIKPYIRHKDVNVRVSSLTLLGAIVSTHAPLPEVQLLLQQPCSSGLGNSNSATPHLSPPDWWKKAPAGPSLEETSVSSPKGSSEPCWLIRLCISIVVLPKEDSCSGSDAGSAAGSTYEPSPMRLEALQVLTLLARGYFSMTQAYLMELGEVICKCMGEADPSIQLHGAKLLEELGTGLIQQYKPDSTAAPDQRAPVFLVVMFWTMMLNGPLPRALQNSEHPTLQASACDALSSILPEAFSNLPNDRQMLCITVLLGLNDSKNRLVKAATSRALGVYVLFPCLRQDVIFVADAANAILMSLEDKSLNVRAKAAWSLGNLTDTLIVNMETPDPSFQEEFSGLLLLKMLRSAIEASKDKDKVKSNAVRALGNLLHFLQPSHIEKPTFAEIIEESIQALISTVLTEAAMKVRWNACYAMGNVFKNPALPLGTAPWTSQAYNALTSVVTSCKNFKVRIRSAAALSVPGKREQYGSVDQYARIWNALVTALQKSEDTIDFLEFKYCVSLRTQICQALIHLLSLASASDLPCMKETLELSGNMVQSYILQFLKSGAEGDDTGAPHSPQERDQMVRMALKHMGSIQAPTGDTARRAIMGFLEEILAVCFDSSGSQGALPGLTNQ
# UniProt Q00613: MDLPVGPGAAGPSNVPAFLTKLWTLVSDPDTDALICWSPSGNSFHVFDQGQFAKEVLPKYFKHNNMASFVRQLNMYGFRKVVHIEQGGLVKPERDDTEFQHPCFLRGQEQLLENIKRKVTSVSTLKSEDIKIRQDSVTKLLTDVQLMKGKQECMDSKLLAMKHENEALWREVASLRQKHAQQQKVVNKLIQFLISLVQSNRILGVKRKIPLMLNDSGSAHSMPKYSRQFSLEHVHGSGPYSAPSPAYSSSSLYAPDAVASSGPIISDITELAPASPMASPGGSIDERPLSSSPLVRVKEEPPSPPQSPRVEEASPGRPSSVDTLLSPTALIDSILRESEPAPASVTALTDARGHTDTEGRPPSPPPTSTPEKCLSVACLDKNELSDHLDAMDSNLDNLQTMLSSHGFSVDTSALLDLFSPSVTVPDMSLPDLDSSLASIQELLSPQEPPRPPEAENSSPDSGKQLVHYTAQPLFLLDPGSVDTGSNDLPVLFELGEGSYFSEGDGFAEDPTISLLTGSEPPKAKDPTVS
# UniProt Q9BUJ2: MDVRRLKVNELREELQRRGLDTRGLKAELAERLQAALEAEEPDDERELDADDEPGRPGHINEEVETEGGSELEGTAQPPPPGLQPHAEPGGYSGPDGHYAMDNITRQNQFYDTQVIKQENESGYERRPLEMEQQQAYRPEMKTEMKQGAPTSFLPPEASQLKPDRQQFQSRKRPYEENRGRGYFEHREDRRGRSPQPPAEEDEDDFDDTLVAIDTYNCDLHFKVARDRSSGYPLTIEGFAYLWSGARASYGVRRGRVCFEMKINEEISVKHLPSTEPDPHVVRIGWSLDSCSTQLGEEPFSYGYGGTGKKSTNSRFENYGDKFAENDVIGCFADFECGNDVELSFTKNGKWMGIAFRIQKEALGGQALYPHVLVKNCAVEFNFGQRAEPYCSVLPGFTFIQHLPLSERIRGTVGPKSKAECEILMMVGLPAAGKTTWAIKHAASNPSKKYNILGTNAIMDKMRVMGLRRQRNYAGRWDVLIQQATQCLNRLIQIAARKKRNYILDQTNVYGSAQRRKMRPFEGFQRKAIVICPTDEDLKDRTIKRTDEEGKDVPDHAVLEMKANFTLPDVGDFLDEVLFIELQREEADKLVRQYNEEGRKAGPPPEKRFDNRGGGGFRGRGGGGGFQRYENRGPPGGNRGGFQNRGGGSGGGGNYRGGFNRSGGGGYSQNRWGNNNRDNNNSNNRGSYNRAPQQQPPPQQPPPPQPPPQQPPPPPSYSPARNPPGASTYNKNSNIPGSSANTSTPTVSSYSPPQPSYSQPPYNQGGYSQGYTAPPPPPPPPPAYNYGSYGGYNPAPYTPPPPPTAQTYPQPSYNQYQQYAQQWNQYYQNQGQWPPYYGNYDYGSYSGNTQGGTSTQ
# UniProt Q96JB3: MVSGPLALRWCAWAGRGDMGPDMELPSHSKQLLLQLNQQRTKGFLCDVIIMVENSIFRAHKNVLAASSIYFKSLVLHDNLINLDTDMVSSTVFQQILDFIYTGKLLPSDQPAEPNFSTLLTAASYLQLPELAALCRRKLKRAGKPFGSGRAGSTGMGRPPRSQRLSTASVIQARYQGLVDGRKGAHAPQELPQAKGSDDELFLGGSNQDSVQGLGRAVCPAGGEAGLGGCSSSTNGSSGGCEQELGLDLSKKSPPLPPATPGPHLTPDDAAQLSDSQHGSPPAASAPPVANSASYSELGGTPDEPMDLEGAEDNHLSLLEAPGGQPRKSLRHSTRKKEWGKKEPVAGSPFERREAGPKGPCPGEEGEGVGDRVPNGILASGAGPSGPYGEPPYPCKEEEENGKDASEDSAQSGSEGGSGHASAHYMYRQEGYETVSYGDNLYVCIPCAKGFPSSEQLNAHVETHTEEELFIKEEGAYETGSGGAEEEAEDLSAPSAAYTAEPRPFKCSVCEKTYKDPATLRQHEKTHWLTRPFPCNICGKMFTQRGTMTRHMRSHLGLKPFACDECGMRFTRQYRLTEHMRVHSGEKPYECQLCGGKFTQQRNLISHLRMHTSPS
# UniProt Q3SXM5: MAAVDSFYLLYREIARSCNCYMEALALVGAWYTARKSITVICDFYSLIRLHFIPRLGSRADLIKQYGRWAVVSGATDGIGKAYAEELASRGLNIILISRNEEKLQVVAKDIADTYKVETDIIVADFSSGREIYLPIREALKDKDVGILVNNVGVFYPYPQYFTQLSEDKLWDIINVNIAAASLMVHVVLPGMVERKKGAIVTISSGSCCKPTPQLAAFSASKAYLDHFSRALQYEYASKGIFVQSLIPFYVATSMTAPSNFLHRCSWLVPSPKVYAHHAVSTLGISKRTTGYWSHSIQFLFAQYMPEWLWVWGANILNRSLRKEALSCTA
# UniProt Q9BTY7: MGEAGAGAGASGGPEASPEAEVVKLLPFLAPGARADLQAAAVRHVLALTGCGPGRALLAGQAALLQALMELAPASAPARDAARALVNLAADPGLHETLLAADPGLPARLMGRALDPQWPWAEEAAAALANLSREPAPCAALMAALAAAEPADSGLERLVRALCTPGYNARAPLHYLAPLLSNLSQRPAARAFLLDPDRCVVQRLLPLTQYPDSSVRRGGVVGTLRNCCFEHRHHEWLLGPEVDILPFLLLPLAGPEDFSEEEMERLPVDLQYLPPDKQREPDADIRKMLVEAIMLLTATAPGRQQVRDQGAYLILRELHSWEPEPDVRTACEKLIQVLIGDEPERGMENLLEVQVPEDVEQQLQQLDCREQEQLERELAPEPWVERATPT
# UniProt Q58FF6, whole entry, looked up: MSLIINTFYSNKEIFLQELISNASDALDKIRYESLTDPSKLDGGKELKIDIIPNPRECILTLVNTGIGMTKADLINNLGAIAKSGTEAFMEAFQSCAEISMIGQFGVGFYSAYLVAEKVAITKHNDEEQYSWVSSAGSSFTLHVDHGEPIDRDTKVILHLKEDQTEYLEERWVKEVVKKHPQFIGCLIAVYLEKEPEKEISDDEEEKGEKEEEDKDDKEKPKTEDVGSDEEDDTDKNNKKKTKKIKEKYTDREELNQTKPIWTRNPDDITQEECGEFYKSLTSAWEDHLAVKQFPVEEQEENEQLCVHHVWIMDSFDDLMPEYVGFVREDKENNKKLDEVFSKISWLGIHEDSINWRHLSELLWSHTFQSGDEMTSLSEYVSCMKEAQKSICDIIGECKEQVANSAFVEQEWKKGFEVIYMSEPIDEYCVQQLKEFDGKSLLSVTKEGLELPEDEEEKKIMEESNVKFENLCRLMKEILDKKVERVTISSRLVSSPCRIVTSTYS
# UniProt O75506: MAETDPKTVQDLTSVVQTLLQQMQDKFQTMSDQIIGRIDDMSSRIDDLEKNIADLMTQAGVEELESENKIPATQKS
# UniProt Q8WVB3: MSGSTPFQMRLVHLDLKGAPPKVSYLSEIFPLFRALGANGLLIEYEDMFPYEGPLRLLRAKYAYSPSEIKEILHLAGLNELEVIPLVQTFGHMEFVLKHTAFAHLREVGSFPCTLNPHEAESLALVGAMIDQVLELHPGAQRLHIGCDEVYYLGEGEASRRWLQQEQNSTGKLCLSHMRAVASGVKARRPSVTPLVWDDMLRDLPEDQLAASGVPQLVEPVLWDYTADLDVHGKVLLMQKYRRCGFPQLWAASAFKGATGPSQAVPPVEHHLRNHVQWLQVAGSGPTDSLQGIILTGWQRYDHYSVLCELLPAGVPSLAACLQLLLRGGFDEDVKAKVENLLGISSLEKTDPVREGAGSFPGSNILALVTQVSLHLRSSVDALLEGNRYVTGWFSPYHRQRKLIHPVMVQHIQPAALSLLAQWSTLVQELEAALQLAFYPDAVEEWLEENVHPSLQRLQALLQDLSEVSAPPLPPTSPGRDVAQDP
# UniProt P56937: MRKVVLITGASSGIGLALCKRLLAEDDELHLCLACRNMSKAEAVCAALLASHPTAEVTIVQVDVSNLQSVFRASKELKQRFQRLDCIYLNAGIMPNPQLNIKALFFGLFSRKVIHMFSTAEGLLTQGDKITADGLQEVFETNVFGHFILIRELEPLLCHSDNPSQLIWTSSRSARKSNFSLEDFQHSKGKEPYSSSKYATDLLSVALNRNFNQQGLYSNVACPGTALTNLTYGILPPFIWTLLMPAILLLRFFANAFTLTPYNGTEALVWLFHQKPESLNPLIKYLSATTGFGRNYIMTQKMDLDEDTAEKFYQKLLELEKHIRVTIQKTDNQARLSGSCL
# The other results are listed elsewhere or left out.
# Experiments:
# Assay in all cases: log2 fold change, soluble protein after heating vs DMSO (PISA); higher = thermal stabilisation; K562 lysate, 10 uM; active = over 0.2 and 3.5 SD of the protein, either way, in both replicates (recomputed)
# [1] = compound: NCC(=O)Nc1ccc(-n2nc(C(F)(F)F)cc2-c2ccc3c(ccc4ccccc43)c2)cc1
# Outline: (§1)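 Log-two fold change in thermal stability relative to solvent controls is reported from duplicates. For each sample, crude K562 extract from dounce-homogenised pellets in PBS pH 7.4 with 1 mM MgCl2, at 1 mg/mL protein, was treated with 10 μM compound for 30 min. Aliquots heated for 3 min across 48°C-58°C were pooled, brought to 0.5% NP-40 at 4°C and cleared at 21,000xg for 90 min. The supernatant was quantified by TMTpro 16plex LC-MS/MS with channel sums equalised.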
# vorinostat = compound: O=C(CCCCCCC(=O)Nc1ccccc1)NO [vorinostat]
# Outline: as §1
# silmitasertib = compound: O=C(O)c1ccc2c(c1)nc(Nc1cccc(Cl)c1)c1ccncc12 [silmitasertib]
# Outline: as §1
# [2] = compound: O=C1NC(=O)C(c2cnc3ccccn23)=C1c1cn2c3c(cc(F)cc13)CN(C(=O)N1CCCCC1)CC2
# Outline: as §1
# entospletinib = compound: c1cn2cc(-c3ccc4cn[nH]c4c3)nc(Nc3ccc(N4CCOCC4)cc3)c2n1 [entospletinib]
# Outline: as §1
Target,log2 fold change [1],log2 fold change (vorinostat),log2 fold change (silmitasertib),log2 fold change [2],log2 fold change (entospletinib)
HSD17B11 (UniProt Q8NBQ5),inactive: -0.031,inactive: 0.076,inactive: -0.008,inactive: -0.01,inactive: -0.018
HSPA1A (UniProt P0DMV8),inactive: -0.008,inactive: 0.108,inactive: -0.014,inactive: -0.001,inactive: -0.035
HEATR6 (UniProt Q6AI08),inactive: -0.005,active: -0.466,inactive: 0.047,inactive: -0.026,inactive: 0
HSF1 (UniProt Q00613),inactive: -0.024,inactive: 0.035,inactive: 0.012,inactive: -0.022,inactive: 0.017
HNRNPUL1 (UniProt Q9BUJ2),inactive: -0.02,inactive: 0.122,inactive: 0.012,inactive: -0.022,inactive: -0.02
HIC2 (UniProt Q96JB3),inactive: 0.016,inactive: 0.03,inactive: 0.003,inactive: 0.018,inactive: -0.019
HSDL1 (UniProt Q3SXM5),inactive: -0.092,inactive: -0.006,inactive: -0.008,inactive: -0.041,inactive: 0
HGH1 (UniProt Q9BTY7),inactive: -0.055,inactive: -0.207,inactive: 0.076,inactive: 0.009,inactive: -0.023
HERC2 (UniProt O95714),inactive: 0.04,inactive: -0.006,inactive: -0.076,inactive: -0.009,inactive: 0.014
HSP90AB4P (UniProt Q58FF6),inactive: 0.056,inactive: 0.174,inactive: -0.026,inactive: -0.119,inactive: -0.011
HSBP1 (UniProt O75506),inactive: -0.022,inactive: 0.229,inactive: -0.243,,inactive: 0.085
HEXD isoform 2 (UniProt Q8WVB3),inactive: -0.133,inactive: -0.215,inactive: -0.036,,inactive: 0.216
HSD17B7 (UniProt P56937),inactive: -0.097,inactive: -0.24,inactive: 0.009,,inactive: 0.072

# Full records from above:
# HERC2 (UniProt O95714) reads log2 fold change [1]: inactive: 0.04; log2 fold change (vorinostat): inactive: -0.006; log2 fold change (silmitasertib): inactive: -0.076; log2 fold change [2]: inactive: -0.009; log2 fold change (entospletinib): inactive: 0.014
# HEXD isoform 2 (UniProt Q8WVB3) reads log2 fold change [1]: inactive: -0.133; log2 fold change (vorinostat): inactive: -0.215; log2 fold change (silmitasertib): inactive: -0.036; log2 fold change (entospletinib): inactive: 0.216
